The text below walks through data of the supplement of paper PMC11732987, “Enantioselective OTUD7B fragment discovery through chemoproteomics screening and high-throughput optimisation” (Communications Chemistry, 2025).

By UniProt entry, the sequences of proteins in these tests, tags left out. Where a name states a change or a piece, a line headed by the entry shows the natural chain unless it says otherwise. Residues count along the entry.
UniProt Q9NVR2: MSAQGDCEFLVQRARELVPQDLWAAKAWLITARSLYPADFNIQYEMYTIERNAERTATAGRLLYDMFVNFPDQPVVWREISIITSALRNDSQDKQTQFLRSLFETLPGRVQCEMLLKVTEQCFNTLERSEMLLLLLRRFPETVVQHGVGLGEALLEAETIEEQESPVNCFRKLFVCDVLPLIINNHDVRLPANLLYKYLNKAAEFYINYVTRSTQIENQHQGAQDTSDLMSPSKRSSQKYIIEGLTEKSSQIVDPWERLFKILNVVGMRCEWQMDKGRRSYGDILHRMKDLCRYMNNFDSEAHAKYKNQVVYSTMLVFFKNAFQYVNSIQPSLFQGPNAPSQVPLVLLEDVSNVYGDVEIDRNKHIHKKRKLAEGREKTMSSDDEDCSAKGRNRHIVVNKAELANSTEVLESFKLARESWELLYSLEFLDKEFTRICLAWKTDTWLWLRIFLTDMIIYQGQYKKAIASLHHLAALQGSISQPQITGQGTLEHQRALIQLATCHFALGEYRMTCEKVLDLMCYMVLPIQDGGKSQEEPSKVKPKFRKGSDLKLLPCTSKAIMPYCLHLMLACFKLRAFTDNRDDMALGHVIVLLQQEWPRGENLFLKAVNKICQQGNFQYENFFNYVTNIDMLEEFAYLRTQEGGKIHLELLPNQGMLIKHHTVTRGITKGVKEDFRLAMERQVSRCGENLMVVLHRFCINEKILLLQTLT
UniProt Q7Z5L9: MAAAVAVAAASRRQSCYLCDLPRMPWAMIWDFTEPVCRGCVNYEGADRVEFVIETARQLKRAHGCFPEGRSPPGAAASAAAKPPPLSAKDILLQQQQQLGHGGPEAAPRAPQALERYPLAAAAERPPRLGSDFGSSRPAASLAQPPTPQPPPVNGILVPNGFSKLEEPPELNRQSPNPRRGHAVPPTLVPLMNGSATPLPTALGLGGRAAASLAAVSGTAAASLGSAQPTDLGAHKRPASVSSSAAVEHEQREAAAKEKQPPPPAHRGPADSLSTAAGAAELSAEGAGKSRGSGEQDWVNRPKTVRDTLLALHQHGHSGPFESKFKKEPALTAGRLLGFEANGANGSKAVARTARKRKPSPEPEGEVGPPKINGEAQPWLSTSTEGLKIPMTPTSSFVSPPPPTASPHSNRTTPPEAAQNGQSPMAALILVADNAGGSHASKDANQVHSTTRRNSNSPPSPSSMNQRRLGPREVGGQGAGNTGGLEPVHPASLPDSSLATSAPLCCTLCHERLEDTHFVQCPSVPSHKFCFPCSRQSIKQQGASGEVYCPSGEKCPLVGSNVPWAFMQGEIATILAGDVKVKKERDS
UniProt P48735: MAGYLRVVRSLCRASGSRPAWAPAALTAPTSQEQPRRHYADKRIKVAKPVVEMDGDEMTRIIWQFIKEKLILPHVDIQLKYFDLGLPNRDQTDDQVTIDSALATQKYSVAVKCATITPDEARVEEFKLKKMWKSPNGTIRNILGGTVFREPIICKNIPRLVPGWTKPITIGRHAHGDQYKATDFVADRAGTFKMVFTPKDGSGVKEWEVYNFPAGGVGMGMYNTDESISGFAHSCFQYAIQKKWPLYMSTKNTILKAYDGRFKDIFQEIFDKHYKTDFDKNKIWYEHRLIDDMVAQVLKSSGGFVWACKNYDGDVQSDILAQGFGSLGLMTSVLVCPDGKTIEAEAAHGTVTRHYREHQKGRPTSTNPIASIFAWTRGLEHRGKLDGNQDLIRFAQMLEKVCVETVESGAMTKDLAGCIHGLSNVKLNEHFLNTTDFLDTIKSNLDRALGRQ
UniProt Q8TEX9: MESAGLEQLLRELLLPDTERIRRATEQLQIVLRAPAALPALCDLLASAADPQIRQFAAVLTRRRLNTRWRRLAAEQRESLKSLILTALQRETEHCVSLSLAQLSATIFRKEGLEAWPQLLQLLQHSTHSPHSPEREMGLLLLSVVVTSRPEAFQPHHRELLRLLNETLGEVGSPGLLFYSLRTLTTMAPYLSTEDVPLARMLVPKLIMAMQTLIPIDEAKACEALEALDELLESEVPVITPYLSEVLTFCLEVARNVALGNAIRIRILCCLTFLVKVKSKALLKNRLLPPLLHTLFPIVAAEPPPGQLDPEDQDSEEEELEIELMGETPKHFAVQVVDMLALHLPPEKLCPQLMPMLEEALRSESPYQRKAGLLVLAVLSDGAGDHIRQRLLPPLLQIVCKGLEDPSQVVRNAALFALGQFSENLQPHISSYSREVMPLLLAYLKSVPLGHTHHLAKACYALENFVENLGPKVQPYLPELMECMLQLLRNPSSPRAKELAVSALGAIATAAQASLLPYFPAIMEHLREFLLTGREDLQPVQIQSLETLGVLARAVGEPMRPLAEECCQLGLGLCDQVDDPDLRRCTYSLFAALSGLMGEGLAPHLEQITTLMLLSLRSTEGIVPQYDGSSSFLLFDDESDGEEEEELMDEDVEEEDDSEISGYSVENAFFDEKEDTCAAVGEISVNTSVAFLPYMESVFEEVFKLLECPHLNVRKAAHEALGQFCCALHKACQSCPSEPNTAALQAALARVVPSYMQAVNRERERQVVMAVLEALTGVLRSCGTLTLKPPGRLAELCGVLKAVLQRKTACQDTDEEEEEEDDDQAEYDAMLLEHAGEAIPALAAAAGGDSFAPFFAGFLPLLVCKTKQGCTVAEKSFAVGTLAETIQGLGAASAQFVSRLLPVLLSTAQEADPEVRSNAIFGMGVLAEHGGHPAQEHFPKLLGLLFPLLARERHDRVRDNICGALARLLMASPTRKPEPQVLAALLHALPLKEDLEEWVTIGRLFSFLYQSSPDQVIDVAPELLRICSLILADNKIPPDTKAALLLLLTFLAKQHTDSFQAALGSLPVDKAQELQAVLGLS
UniProt Q00613: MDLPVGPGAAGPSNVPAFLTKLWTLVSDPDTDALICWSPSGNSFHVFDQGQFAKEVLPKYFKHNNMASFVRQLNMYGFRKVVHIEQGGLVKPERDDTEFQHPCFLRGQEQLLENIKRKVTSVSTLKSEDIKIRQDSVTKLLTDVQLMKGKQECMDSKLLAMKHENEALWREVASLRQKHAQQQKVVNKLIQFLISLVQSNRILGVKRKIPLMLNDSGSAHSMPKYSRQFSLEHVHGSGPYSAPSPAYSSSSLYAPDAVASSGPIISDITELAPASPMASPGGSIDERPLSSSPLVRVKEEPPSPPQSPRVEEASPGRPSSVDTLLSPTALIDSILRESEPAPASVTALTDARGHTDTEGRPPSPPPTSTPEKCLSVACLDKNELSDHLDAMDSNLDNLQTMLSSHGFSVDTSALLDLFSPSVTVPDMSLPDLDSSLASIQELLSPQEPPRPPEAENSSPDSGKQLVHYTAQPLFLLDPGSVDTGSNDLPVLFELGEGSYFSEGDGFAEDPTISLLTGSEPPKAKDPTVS
UniProt P10809: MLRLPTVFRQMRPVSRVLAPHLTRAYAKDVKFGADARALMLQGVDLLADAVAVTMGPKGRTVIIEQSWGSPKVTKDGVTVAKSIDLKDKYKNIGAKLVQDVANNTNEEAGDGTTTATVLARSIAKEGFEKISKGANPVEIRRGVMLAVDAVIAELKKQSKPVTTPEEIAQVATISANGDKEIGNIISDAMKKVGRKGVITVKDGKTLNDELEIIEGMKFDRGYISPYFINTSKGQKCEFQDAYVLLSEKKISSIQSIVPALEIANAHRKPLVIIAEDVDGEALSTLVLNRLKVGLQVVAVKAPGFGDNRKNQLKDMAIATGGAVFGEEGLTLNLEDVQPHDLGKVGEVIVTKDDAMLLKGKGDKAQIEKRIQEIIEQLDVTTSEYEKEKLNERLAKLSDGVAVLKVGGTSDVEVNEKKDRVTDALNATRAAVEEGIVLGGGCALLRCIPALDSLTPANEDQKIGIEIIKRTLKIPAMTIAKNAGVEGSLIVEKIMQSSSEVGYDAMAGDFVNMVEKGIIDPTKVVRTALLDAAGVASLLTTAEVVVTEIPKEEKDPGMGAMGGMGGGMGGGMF
UniProt Q96F46, 694-713: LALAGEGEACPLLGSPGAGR
UniProt O43837: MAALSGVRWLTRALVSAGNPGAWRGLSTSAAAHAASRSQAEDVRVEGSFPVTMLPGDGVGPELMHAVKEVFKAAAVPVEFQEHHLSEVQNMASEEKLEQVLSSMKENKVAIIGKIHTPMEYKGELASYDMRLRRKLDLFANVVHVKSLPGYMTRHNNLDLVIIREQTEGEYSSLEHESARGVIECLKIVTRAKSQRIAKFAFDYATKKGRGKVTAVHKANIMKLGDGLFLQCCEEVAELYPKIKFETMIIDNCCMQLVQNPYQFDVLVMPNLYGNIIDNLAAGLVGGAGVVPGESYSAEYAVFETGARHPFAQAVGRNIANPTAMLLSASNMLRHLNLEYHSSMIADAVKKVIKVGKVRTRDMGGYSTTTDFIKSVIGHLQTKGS
UniProt Q9UG01: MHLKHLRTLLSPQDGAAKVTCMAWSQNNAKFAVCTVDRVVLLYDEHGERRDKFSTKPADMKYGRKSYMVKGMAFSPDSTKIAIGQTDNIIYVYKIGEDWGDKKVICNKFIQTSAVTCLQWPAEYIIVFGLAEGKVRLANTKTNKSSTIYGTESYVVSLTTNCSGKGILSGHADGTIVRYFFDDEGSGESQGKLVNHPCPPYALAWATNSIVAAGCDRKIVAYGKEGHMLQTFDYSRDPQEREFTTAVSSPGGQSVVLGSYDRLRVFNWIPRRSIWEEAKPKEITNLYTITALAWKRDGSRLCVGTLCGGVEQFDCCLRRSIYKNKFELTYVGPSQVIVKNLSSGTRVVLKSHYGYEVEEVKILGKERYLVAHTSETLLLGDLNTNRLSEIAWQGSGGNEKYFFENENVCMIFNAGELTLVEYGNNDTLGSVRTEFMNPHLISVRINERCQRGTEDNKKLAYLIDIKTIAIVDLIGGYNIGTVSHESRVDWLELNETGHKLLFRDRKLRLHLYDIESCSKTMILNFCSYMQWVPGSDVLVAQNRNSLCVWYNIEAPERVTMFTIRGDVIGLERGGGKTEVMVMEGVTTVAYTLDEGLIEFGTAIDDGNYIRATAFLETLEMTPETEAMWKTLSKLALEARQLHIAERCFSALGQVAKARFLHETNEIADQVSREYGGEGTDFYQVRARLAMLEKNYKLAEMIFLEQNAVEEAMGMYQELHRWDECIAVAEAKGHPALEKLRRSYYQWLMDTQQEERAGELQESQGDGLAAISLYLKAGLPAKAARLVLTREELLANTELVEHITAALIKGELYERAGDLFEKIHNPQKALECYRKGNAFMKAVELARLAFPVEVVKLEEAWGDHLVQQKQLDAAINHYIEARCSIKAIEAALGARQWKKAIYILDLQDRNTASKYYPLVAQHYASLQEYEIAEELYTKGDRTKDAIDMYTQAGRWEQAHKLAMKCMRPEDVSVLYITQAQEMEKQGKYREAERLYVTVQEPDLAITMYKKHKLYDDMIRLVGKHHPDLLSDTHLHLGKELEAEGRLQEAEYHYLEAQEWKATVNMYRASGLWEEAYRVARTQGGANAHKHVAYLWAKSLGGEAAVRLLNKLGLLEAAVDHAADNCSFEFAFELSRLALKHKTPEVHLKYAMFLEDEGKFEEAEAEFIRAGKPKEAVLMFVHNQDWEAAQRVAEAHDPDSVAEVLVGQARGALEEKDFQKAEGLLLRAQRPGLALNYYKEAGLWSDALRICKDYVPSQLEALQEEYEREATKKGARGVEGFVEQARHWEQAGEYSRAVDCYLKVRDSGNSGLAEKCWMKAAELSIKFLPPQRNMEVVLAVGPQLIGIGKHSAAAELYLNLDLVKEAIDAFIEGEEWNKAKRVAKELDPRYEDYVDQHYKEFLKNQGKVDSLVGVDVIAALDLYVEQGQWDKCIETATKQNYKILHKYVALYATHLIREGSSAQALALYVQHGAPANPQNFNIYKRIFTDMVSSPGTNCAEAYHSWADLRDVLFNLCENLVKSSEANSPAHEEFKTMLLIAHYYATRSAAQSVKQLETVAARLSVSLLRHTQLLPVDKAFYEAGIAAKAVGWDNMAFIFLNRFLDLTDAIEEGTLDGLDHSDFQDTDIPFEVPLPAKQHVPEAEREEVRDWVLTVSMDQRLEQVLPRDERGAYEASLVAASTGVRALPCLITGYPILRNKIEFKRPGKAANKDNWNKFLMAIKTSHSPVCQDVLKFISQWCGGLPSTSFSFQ

The list shows a part of the results. The data scatter; read single values as rough.

Compound in test [1]: ClCC(=O)N[C@@H]1CCCc2ccccc12
Nature of the test: log2 mean competition ratio of IA-DTB cysteine labelling (DMSO/compound) (log2 ratio); higher = stronger cysteine engagement by compound. Particulars: treatment time: 4 h, cell line lysate: HEK293T. How it is done: (§1)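 IA-DTB competitive cysteine chemoproteomics in HEK293T RIPA lysate. Lysates were treated with compound 29 or 30 at 50 or 200 µM for 4 h, then IA-DTB (500 µM, 1 h), trypsin-digested, NeutrAvidin-enriched and analysed by diaPASEF. Competition ratio = intensity DMSO / intensity compound (n=4 treated, n=64 DMSO); binding: mean log2 CR ≥ 1 and p ≤ 0.05 plus QC filters. Target is the cysteine site.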

Compound in test [2]: ClCC(=O)N[C@H]1CCCc2ccccc12
The test is described as above. Particulars: treatment time: 4 h, cell line lysate: HEK293T. How it is done:
as §1

Turning to INTS10 C7 (UniProt Q9NVR2), the “log2 mean competition ratio” value in test [1] (50 µM) was -0.0674; in test [1] (200 µM) it was -0.0414; in test [2] (50 µM), 0.306; in test [2] (200 µM), 0.225.
Turning to IRF2BP2 C65 (UniProt Q7Z5L9), the “log2 mean competition ratio” value in test [1] (50 µM) is -0.0815; in test [1] (200 µM), -0.0594; in test [2] (50 µM), 0.252; in test [2] (200 µM) it was 0.00461.
Turning to IDH2 C154 (UniProt P48735), the “log2 mean competition ratio” value turned out to be 0.203 in test [1] (50 µM), 0.339 in test [1] (200 µM), 0.488 in test [2] (50 µM) and 0.235 in test [2] (200 µM).
In the case of HUWE1 C790, the “log2 mean competition ratio” value in test [1] (50 µM) is -0.337; in test [1] (200 µM) it was -0.0931; in test [2] (50 µM) it was 0.164; in test [2] (200 µM), -0.0916.
Regarding IPO4 C459 (UniProt Q8TEX9), the “log2 mean competition ratio” value in test [1] (50 µM) is -0.0299; in test [1] (200 µM), 0.17; in test [2] (50 µM) it was -0.164; in test [2] (200 µM) it was 0.281.
On to HSPBP1 C201, for which the “log2 mean competition ratio” value in test [1] (50 µM) was -0.079; in test [1] (200 µM), 0.098; in test [2] (50 µM), -0.27; in test [2] (200 µM) it was 0.125.
Consider HSF1 C153 (UniProt Q00613), for which the “log2 mean competition ratio” value in test [1] (50 µM) is -0.283; in test [1] (200 µM) it was 0.598; in test [2] (50 µM) it was 0.379; in test [2] (200 µM), 0.621.
As to HSPD1 C447 (UniProt P10809), the “log2 mean competition ratio” value is -0.116 in test [1] (50 µM), -0.148 in test [1] (200 µM), 0.15 in test [2] (50 µM) and -0.0943 in test [2] (200 µM).
Turning to IRF2BP2 C40 (UniProt Q7Z5L9), the “log2 mean competition ratio” value in test [1] (50 µM) is -0.102; in test [1] (200 µM), 0.234; in test [2] (50 µM), -0.196; in test [2] (200 µM), 0.0973.
On to IL17RA C703 (UniProt Q96F46), for which the “log2 mean competition ratio” value in test [1] (50 µM) is -0.254; in test [1] (200 µM) it was 0.164; in test [2] (50 µM) it was -0.0017; in test [2] (200 µM) it was 0.0256.
In the case of IDH3B C185 (UniProt O43837), the “log2 mean competition ratio” value in test [1] (50 µM) is -0.0851; in test [1] (200 µM), -0.319; in test [2] (50 µM) it was 0.28; in test [2] (200 µM) it was -0.109.
IFT172 C1727 (UniProt Q9UG01): the “log2 mean competition ratio” value in test [1] (50 µM) is 0.0704; in test [1] (200 µM), 0.266; in test [2] (50 µM) it was -0.267; in test [2] (200 µM), 0.0584.
